In PubChem BioAssay AID1347426 (Functional Genomics Laboratory (NCATS/FGL), 2020):
Out of some 31,000 sequences screened, about 1,400 (4.5%) were called active.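 Rule for the calls: active = median seed-adjusted z-score above 1 or below -1; inactive = the rest.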 The list shows a part of the results.

Experiment: Novel Modifiers of Survival Motor Neuron (SMN) Protein: Gene Identification via Genome-wide siRNA Screen;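 note: luminescence tracks full-length SMN protein made from the SMN2 reporter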
Conditions: HEK293T SMN2-luciferase reporter, siRNA knockdown, 72 h; actives lie on both sides
Summary of the method: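 HEK293T cells stably carrying an SMN2 promoter/splicing cassette–luciferase reporter were reverse-transfected with 1 pmol siRNA per well (druggable-genome library, 3 siRNAs per gene) and grown 72 h at 37 °C. Luminescence, normalized to negative-control siRNA and log10-transformed, was scored as MAD.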
For GGACUAUUACAAAUCAAGATT against FLT3, the median seed-adjusted z-score was inactive: 0.418.
For CAGAAAUUCCGGGUAGAUATT against FOSL2, the median seed-adjusted z-score was inactive: -0.372.
In the case of CAACAUACAUCUUACCCAUTT against ZFAND1, the median seed-adjusted z-score is reported as inactive: -0.272.
With GAAUUCACAUCGUGAUGAATT against LSM5 the median seed-adjusted z-score was inactive: -0.661.
For GGAGCAGCAAUAUCCAGAUTT against PRDM9, the median seed-adjusted z-score was inactive: -0.15.
With CGUCCUAAUCUCAAUCUUATT against CD200 the median seed-adjusted z-score was inactive: -0.0135.
With GACAUACAAUGUGGACAGATT against ALPI the median seed-adjusted z-score was inactive: 0.
With GCUAAGAAGCGAUCGCUGATT against SLC22A14 the median seed-adjusted z-score was inactive: 0.215.
For GCCUAACAUCUUCUGGAAATT against SLC6A5, the median seed-adjusted z-score was inactive: -0.204.
With CAACCUCAGAUGACAUUAATT against DNAJC5 the median seed-adjusted z-score was inactive: -0.0844.
For GCACAGUACUGGUCAGUAUTT against NUP107, the median seed-adjusted z-score was inactive: -0.692.
With CGAAGUUUCGAUUUGAUUATT against B3GNT6 the median seed-adjusted z-score was inactive: 0.00618.
For GAACUAUAAGAAUCUAGUUTT against ZNF559, the median seed-adjusted z-score was inactive: -0.0208.
In the case of GCAGAAGUGUUUACAAGCUTT against RGN, the median seed-adjusted z-score is reported as inactive: 0.132.
In the case of GCUUUUCGGGAAUCACGAATT against LOC81691, the median seed-adjusted z-score is reported as inactive: -0.285.
With GGAUGUAAGCCUGACCAUATT against ZNF784 the median seed-adjusted z-score was inactive: 0.291.
With CCCACAAGACGGUUCAGGATT against CLDN22 the median seed-adjusted z-score was inactive: 0.
With GAGUCACAUUUGAGGUUCATT against CSF2RA the median seed-adjusted z-score was inactive: -0.227.
In the case of CGGUUGCGUUUUAAUCGGATT against SDCCAG10, the median seed-adjusted z-score is reported as inactive: -0.465.
With CCACGUGACUAAUCCGAAATT against SLAMF6 the median seed-adjusted z-score was inactive: 0.0115.
In the case of GAAGAUCAGUACUACAGCATT against TTC6, the median seed-adjusted z-score is reported as inactive: 0.234.
For GACUUGUCGUCUUUCCAAUTT against ZFYVE21, the median seed-adjusted z-score was inactive: -0.186.
In the case of GAGCCUGACUGAAACGAUUTT against CDR2, the median seed-adjusted z-score is reported as inactive: -0.37.
For CAUAGUAAAUAGAGGGAUATT against PNPLA8, the median seed-adjusted z-score was inactive: 0.0576.
In the case of AGAAGAUCCUGACCUUUAATT against MAPK4, the median seed-adjusted z-score is reported as inactive: 0.235.
In the case of CAAGCGAGUUUAUUCCUAATT against PAN3, the median seed-adjusted z-score is reported as inactive: 0.349.
For GCGAAACCCUAUCCUCAAATT against ARHGEF11, the median seed-adjusted z-score was inactive: -0.525.
In the case of GCAUGACCCUCACCUCUAUTT against TGFBI, the median seed-adjusted z-score is reported as inactive: 0.
For GCAUUUACUCGCUCUUCAATT against KCNK12, the median seed-adjusted z-score was active: 1.04.
With GGGAUAAAUUUGACGUGGATT against SPAG1 the median seed-adjusted z-score was inactive: 0.413.
In the case of CGAGGAAUGUGAUAAGGGATT against ZFP112, the median seed-adjusted z-score is reported as inactive: -0.449.
In the case of GAAAGAAACAUCACCGUGATT against RNF150, the median seed-adjusted z-score is reported as inactive: 0.478.
With CGAUAAGAUCAAUUCGGAATT against MTMR10 the median seed-adjusted z-score was inactive: 0.144.
For CGUUAUGUACGUGAUCUAATT against TPTE, the median seed-adjusted z-score was inactive: 0.213.
With GCAUUGUUUCUAAGAACUUTT against HSPB8 the median seed-adjusted z-score was inactive: 0.207.
In the case of CGCAGGUACUUGGUAAUCATT against ZC3H7A, the median seed-adjusted z-score is reported as inactive: 0.208.
For CAAUGACCCUGCUAUACCATT against ALOX15B, the median seed-adjusted z-score was inactive: 0.156.
For CCAACAUCUCAGCCGUGAATT against DAPK3, the median seed-adjusted z-score was inactive: -0.105.
For GGCCUCUGUUCAAUACUGATT against POLD3, the median seed-adjusted z-score was inactive: -0.161.
For GUCUCUCAGCUUACGUAUATT against SNX25, the median seed-adjusted z-score was inactive: -0.26.
For CCACCUCACAGAUCGCCUATT against SOX10, the median seed-adjusted z-score was inactive: -0.255.
For GCACAAGUAAAAUAGACAATT against GABRA4, the median seed-adjusted z-score was inactive: 0.549.
With GGACCUAUGAGCAACGAAATT against ATP1A4 the median seed-adjusted z-score was inactive: 0.116.
For GGAUGACCAGAAUAGCGAATT against ALKBH1, the median seed-adjusted z-score was inactive: -0.087.
In the case of GGACUAAAACUUUAAACUATT against POU4F2, the median seed-adjusted z-score is reported as active: 1.46.
With CCAUUGAAGUGGUUAAGAATT against CCNE2 the median seed-adjusted z-score was inactive: 0.801.
In the case of GGCUACUUUCCCAAUAUUUTT against LBX2, the median seed-adjusted z-score is reported as inactive: 0.538.
With CGACUUUGCAGUGCCGAAATT against ATP10A the median seed-adjusted z-score was inactive: -0.435.
In the case of CAGCCUCAGUGGAUUCAGATT against SPRYD5, the median seed-adjusted z-score is reported as inactive: 0.151.
In the case of GGCUGGUUCUGACUCACUUTT against ELAC1, the median seed-adjusted z-score is reported as inactive: 0.967.
For GGACGUGGACCAUUACUGUTT against LITAF, the median seed-adjusted z-score was inactive: 0.0771.
For CAGUUGUGGUAAAAUUAAATT against LSM6, the median seed-adjusted z-score was inactive: -0.0501.
For GGGUUGGUGUGAUUGGAGUTT against LOC647743, the median seed-adjusted z-score was inactive: -0.203.
For AGCUGGGCUUUAUCGUGGATT against P2RX2, the median seed-adjusted z-score was inactive: 0.0454.
